These are yes or no findings as the source states them, for the method shown. In cells and extracts the contact can be indirect. Some entries that bind do so weakly or less than the wild type.
T1: 14-3-3ζ (human (endogenous in SCC4)), P63104
T1 chain: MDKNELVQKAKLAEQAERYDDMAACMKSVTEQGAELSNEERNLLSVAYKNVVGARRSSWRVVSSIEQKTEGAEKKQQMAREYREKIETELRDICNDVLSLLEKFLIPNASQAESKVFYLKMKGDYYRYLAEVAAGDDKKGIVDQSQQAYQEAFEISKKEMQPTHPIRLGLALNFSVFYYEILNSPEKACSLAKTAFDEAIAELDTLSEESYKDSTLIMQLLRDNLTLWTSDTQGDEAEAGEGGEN

T2: pBad (Bad phosphorylated at Ser-136) (human (endogenous in SCC4)), Q92934
T2 chain: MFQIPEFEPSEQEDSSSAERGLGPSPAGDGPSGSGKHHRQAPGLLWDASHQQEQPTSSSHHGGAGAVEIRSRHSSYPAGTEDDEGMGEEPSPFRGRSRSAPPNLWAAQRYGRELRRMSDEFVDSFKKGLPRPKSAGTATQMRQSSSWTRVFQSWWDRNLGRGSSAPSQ

B1: pBad (Bad phosphorylated at Ser-136), Q92934 1-168 (protein)
chain: MFQIPEFEPSEQEDSSSAERGLGPSPAGDGPSGSGKHHRQAPGLLWDASHQQEQPTSSSHHGGAGAVEIRSRHSSYPAGTEDDEGMGEEPSPFRGRSRSAPPNLWAAQRYGRELRRMSDEFVDSFKKGLPRPKSAGTATQMRQSSSWTRVFQSWWDRNLGRGSSAPSQ
modifications: here or on the partner: phosphoserine at 136 (Ser-136 as printed)
B2: 14-3-3ζ, P63104 1-245 (protein)
chain: MDKNELVQKAKLAEQAERYDDMAACMKSVTEQGAELSNEERNLLSVAYKNVVGARRSSWRVVSSIEQKTEGAEKKQQMAREYREKIETELRDICNDVLSLLEKFLIPNASQAESKVFYLKMKGDYYRYLAEVAAGDDKKGIVDQSQQAYQEAFEISKKEMQPTHPIRLGLALNFSVFYYEILNSPEKACSLAKTAFDEAIAELDTLSEESYKDSTLIMQLLRDNLTLWTSDTQGDEAEAGEGGEN
modifications: here or on the partner: phosphoserine at 136 (Ser-136 as printed)

Columns and labels:
[1] = biological target: T1, 14-3-3ζ (human (endogenous in SCC4)), …; assay: co-IP; whole cell lysates of SCC4 cells treated with ST (20 µg/ml) or nicotine (10 µM) for different time intervals; 14-3-3ζ immunoprecipitated and pBad blotted, and in reverse pBad immunoprecipitated and 14-3-3ζ blotted; Protein A-sepharose beads; settings: remark: other sources report otherwise
[2] = biological target: T2, pBad (Bad phosphorylated at Ser-136) …; assay: as above; settings: remark: other sources report otherwise

| Binder | binding [1] | binding [2] |
| --- | --- | --- |
| B1 | binds |  |
| B2 |  | binds |

— article PMC3044714
